# Reference: PubChem BioAssay AID651640 (Broad Institute, 2012)
# Hit rate of the full screen: of about 350,000 compounds, about 6,000 (1.7%) were called active. Inconclusive means that the source gave no clear call. Such entries were picked first, then a sample of the others. Rule as the data show it: active = CPE inhibition above about 20% (passing the limit was not always enough); inconclusive = no clear call, values can overlap the other calls; tested in BHK-21 cells. A structure can be active in one record and inactive in another.
# Test: protection of cells from dengue 2 killing – plate reader, single concentration, primary screen (AID 651640);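 also: 0% = median of neutral control wells and 100% = median of positive control wells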
# Conditions: DENV2-infected cells, cytopathic effect rescue, at 9.99 µM, active compounds read high
row,SMILES,CPE inhibition
1,C[C@H](O)[C@@H]1C(=O)N2CCc3ccc(N4CCOCC4)cc3[C@@H]2C[C@@H]1N(C)C(=O)Nc1ccccc1,inconclusive: 76.5%
2,CN1CCN(c2ccc(Cl)cc2NC(=O)CC2OC(=O)c3ccccc32)CC1 (stereo not given),inconclusive: 46.2%
3,CCCCNC(=O)C1CCC(CNS(=O)(=O)c2c(C)cc(C)cc2C)CC1 (stereo not given),inconclusive: 24.9%
4,Cc1cccc(-c2ccc([C@H]3[C@@H](CO)N4CCCCN(C(=O)c5cccnc5)C[C@@H]34)cc2)c1,active: 31.6%
5,Cc1noc(C)c1NC(=O)Nc1ccc2c(c1)C(=O)N([C@@H](C)CO)C[C@@H](C)[C@@H](CN(C)C(=O)Nc1ccc(C(F)(F)F)cc1)O2,active: 32.2%
6,Cc1ccc(S(=O)(=O)N(C)C[C@H]2OCCCC[C@H](C)Oc3ccc(NC(=O)C4CCCCC4)cc3C(=O)N([C@H](C)CO)C[C@@H]2C)cc1,inconclusive: 71.8%
7,C[C@H](CO)N1C[C@H](C)[C@@H](CN(C)Cc2ccc(Oc3ccccc3)cc2)Oc2cc(Br)ccc2S1(=O)=O,active: 25%
8,CN(C)c1ccc(CN(C(=O)c2cccs2)C2CCS(=O)(=O)C2)cc1 (stereo not given),inconclusive: 67.9%
9,Fc1ccccc1C1CCN(Cc2nc(COc3ccccc3)no2)C1 (stereo not given),inactive: -1.57%
10,O=C(C[C@H]1CC[C@@H]2[C@H](COC[C@H](O)CN2CC2CCOCC2)O1)NCC1CCCCC1,inconclusive: 44.4%
11,C[C@@H]1CN([C@H](C)CO)C(=O)c2cc(C3=CCCC3)cnc2O[C@H]1CN(C)C,inactive: 0.588%
12,O=C(CNC(=O)c1cccs1)N/N=C/c1ccc(O)cc1O,inactive: -0.666%
13,COc1ccc(CN(C)C[C@H]2OCCCC[C@H](C)Oc3ccc(NC(=O)NC(C)C)cc3C(=O)N([C@H](C)CO)C[C@@H]2C)cc1,inactive: -9.99%
14,Cn1ncc(Cl)c1C(=O)N1CCN(c2ccc(F)cc2)CC1,active: 50.1%
15,CO[C@@H]1CN(C)C(=O)c2ccc(NC(=O)C3CC3)cc2OC[C@@H](C)N(C(=O)Nc2ccccc2F)C[C@H]1C,inconclusive: 26.1%
16,COc1ccc(Cl)cc1C(=O)N1CCN=C1SC,inconclusive: 21.6%
17,CC(C)NC(=O)N1C[C@@H]2[C@H](c3ccccc31)[C@H](CO)N2C(=O)c1ccccc1,inconclusive: 99.1%
18,COc1ccccc1NC(=O)N[C@@H](Cc1c[nH]c2ccccc12)C(=O)NN,inconclusive: 24%
19,COc1cccc(-c2nc(C(N)=O)c3[nH]c(=O)n(-c4ccccc4)c3n2)c1OC,inconclusive: 50.7%
20,O=C(C[C@@H]1CC[C@@H]2[C@H](COC[C@@H](O)CN2S(=O)(=O)c2ccc(Cl)cc2)O1)NCCN1CCCCC1,inactive: 3.42%
21,Cn1cccc1Cc1nnc(SCC(=O)Nc2ccc(F)cc2)n1CCc1ccccc1,inconclusive: 86.3%
22,CN(Cc1ccccc1)C(=O)C(=O)c1c[nH]c2ccccc12,inconclusive: 21%
23,O=C(Nc1ccc(F)cc1)C1CC2CCC1C2 (stereo not given),inactive: -0.79%
24,C[C@H]1CN([C@@H](C)CO)C(=O)Cc2cc(NC(=O)Cc3ccccc3)ccc2O[C@@H]1CN(C)Cc1ccc(C(F)(F)F)cc1,inconclusive: 20.5%

row,SMILES,CPE inhibition
1,CCCN1C[C@@H](C)[C@@H](OC)CN(C)C(=O)c2cc(NC(=O)c3cccc(F)c3)ccc2OC[C@H]1C,inactive: -9.82%
2,CC(=O)Nc1ccc(S(=O)(=O)N(CC(=O)NC2CC2)Cc2ccccc2)cc1,inconclusive: 54.8%
3,COc1ccc(CSc2nc3nc(C)cc(C)n3n2)cc1F,inconclusive: 22.4%
4,Cc1ccc(S(=O)(=O)N(C)C[C@H]2Oc3c(NC(=O)c4ccncc4)cccc3C(=O)N([C@H](C)CO)C[C@H]2C)cc1,inconclusive: 37.9%
5,COC(=O)C1=C(C)N(Cc2ccccc2C(F)(F)F)C(=NCc2ccc(C(F)(F)F)cc2)NC1c1ccc(Cl)cc1 (stereo not given),active: 24.9%
6,COc1ccc(NC(=O)CN2CCN(c3ccc(C)cc3C)CC2)cc1,inconclusive: 20.4%
7,C[C@H]1CN([C@@H](C)CO)C(=O)c2cc(NS(C)(=O)=O)ccc2O[C@@H]1CN(C)Cc1ccc(C(F)(F)F)cc1,inactive: 10.7%
8,COCC#Cc1ccc2c(c1)O[C@@H](CN(C)Cc1cncnc1)[C@H](C)CN([C@H](C)CO)S2(=O)=O,inconclusive: 42.2%
9,COc1ccc(CNC(=O)COC(=O)c2ccc(S(=O)(=O)N3CCCCC3)cc2)cc1,inconclusive: 29.4%
10,Cc1cc(Cl)ccc1OCC(=O)Nc1cccc(S(=O)(=O)N2CCCC2)c1,inconclusive: 85.2%
11,CCCCOc1ccc(N(CC(=O)NC2CCCCC2)C(=O)CCC(=O)Nc2ccccn2)cc1,inconclusive: 42.1%
12,CNC[C@@H]1OCCCC[C@@H](C)Oc2ccc(NS(=O)(=O)c3ccc(Cl)cc3)cc2C(=O)N([C@H](C)CO)C[C@H]1C,inconclusive: 53.6%
13,C[C@H]1CN([C@@H](C)CO)S(=O)(=O)c2ccc(C#Cc3cccnc3)cc2O[C@@H]1CN(C)C,inconclusive: 20.4%
14,Cc1cc2cc(CNC(=O)Nc3cccc(Cl)c3)ccc2n1C,inactive: 2.7%
15,CC(NC(=S)NC1CCC(C(C)(C)C)CC1)c1ccccc1 (stereo not given),active: 23.1%
16,O=C(N/N=C/C(Br)=C/c1ccccc1)c1ccncc1,inconclusive: 23%
17,C[C@@H]1CCCCO[C@H](CN(C)C(=O)c2ccncc2)[C@H](C)CN([C@@H](C)CO)C(=O)c2cc(NS(=O)(=O)c3ccccc3)ccc2O1,inactive: 3.08%
18,O=C(COc1cccnc1[N+](=O)[O-])Nc1c(Cl)cccc1Cl,inconclusive: 23.1%
19,CN1CCN(C(=O)C[C@@H]2CC[C@@H](NC(=O)c3ccc4c(c3)OCO4)[C@H](CO)O2)CC1,inconclusive: 38.3%
20,Cc1ccc(NC(=O)Cn2nc(C)c(S(=O)(=O)N(C)C)c2C)cc1C,inactive: -11.1%
21,C[C@@H]1CN([C@@H](C)CO)S(=O)(=O)c2ccc(C#Cc3ccccc3)cc2O[C@@H]1CN(C)C(=O)Cc1ccccn1,inconclusive: 27.1%
22,O=C(Nc1cccc2ccccc12)c1csc([C@@H]2C[C@H](O)[C@@H](CO)O2)n1,inconclusive: 37.2%
23,O=C(c1cccc(F)c1)N1CC(=O)N2[C@H](C1)[C@H](c1ccc(C3=CCCC3)cc1)[C@@H]2CO,inconclusive: 22.1%
24,O=C(NCc1ccccc1)[C@H]1CCCN1C(=O)[C@H]1CCCN1C(=O)c1ccc(F)cc1,inconclusive: 23.8%

# Two entries picked at random from those above, as already listed:
row,SMILES,CPE inhibition
14,Cc1cc2cc(CNC(=O)Nc3cccc(Cl)c3)ccc2n1C,inactive: 2.7%
9,COc1ccc(CNC(=O)COC(=O)c2ccc(S(=O)(=O)N3CCCCC3)cc2)cc1,inconclusive: 29.4%

# Next part.

row,SMILES,CPE inhibition
1,C[C@H]1CN([C@@H](C)CO)C(=O)c2c(c3ccccc3n2C)-c2ccccc2CO[C@H]1CN(C)S(=O)(=O)c1ccc(F)cc1,inactive: -11.2%
2,C[C@@H]1CN([C@H](C)CO)C(=O)c2cccc(NC(=O)NC3CCCCC3)c2O[C@@H]1CN(C)Cc1ccc(C(=O)O)cc1,inconclusive: 41.1%
3,CN(C)CC(=O)Nc1ccc2c(c1)[C@H]1C[C@@H](CC(=O)NCCN3CCCCC3)O[C@H](CO)[C@H]1O2,inactive: -4.46%
4,C[C@H]1CN([C@@H](C)CO)C(=O)c2cccc(NC(=O)Nc3ccc4c(c3)OCO4)c2O[C@@H]1CN(C)Cc1ccccc1,active: 39.2%
5,CC(Oc1ccc(Cl)cc1Cl)C(=O)NNC(=O)c1ccncc1 (stereo not given),inconclusive: 25.5%
6,CC(=O)Nc1cc(-c2ccccc2N(C)C)cn2c(-c3ccc(F)c(Cl)c3)cnc12,inconclusive: 21.1%
7,C[C@H](CO)N1C[C@H](C)[C@H](CN(C)C(=O)C2CC2)OCc2cnnn2CCCC1=O,active: 113%
8,CCCCC(CC)C(=O)Nc1cc(C(=O)NCc2ccc(C)cc2)ccc1N1CCC2(CC1)CC(c1cccc(Br)c1)=NO2 (stereo not given),inactive: -5.31%
9,CC(=O)N1CCc2cc(S(=O)(=O)NC(Cc3ccccc3)C(=O)Nc3cc(C)ccn3)ccc21 (stereo not given),inconclusive: 48.2%
10,O=C(/C=C/c1ccc(Cl)cc1)Nc1ccc(Br)cn1,inconclusive: 27.1%
11,C[C@H](NC(=O)C[C@H]1CC[C@H](NC(=O)CN2CCOCC2)[C@@H](CO)O1)c1ccccc1,inconclusive: 38.3%
12,CCOC(=O)c1c(SC)[nH]c2c(Cl)cccc2c1=O,inconclusive: 30.6%
13,COc1ccc(NC(=O)Nc2ccc3c(c2)C(=O)N([C@@H](C)CO)C[C@@H](C)[C@@H](CN(C)CC2CCCCC2)OCCCC[C@H](C)O3)cc1,inconclusive: 46.7%
14,COc1ccccc1C(=O)N/C(=C/c1ccc(Br)cc1)C(=O)N1CCCC1,inactive: 2.82%
15,C#CCOCCOCCOCCNc1nc(N2CCN(C(=O)[C@H](CCCCN)n3cc([C@@H](N)[C@H](C)CC)nn3)CC2)nc(N2CCN(C(=O)[C@H](CCC(=O)O)n3cc([C@@H](N)CCCCN)nn3)CC2)n1,inactive: -2.29%
16,Cc1ccc(C(=O)NC2CCN(Cc3ccccc3)CC2)cc1S(=O)(=O)N1CCOCC1,inconclusive: 20.4%
17,COc1cc(C(=O)OC2CC3CCC2(C)C3(C)C)ccc1OC(C)=O (stereo not given),inconclusive: 83.5%
18,C[C@@H]1CN([C@@H](C)CO)C(=O)Cc2cc(NC(=O)Nc3ccc(C(F)(F)F)cc3)ccc2O[C@H]1CN(C)Cc1ccc(Cl)c(Cl)c1,inconclusive: 21.9%
19,COc1ccc(-c2csc(-c3cccs3)n2)c(OC)c1,inconclusive: 53.1%
20,COCCN1C[C@@H](CO)O[C@@H](n2cnc3c(N(C)C(C)C)ncnc32)C1,inconclusive: 51.4%
21,O=C(CCCO)N/N=C/c1ccccc1[N+](=O)[O-],inconclusive: 21.1%
22,CC(C)C[C@@H]1CC2=C(C(=O)OC(C)(C)O2)[C@H](CCc2ccccc2)O1,active: 28.6%
